# Percent effect of library compounds

The values are deposited in ChEMBL (CHEMBL3988442, “University of Dundee, Small-Polar-MMV Screening Library” (2021)).

Each number is a percent effect as filed. How 0% and 100% were set is not recorded. Most values in the screen are low, and negative values occur. Compounds were drawn at random from those tested, without regard to their results. A dash means the value is not listed here; it may have been measured.

T. brucei: 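Whole-parasite assay of Trypanosoma brucei over 72 hours; the read-out is not stated. Concentration: 30 µM. Direction is inferred from retests: higher values go with stronger inhibition. Values scatter widely below zero; nearly all retest evidence comes from the higher of the two concentrations used. Of about 64,000 compounds tested this way, about 940 (1.5%) reached 50% or more in at least one test.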
Leishmania in macrophages: 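Cell assay of Leishmania donovani living inside macrophages; the read-out is not stated. Compounds at 30 µM. The record gives no direction; compounds that gave an IC50 in retests scored well above the rest, so higher reads as stronger inhibition. Size under these conditions: about 69,000 compounds, about 1,000 of them at 50% or above in at least one test.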
Toxoplasma: 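Assay of Toxoplasma gondii numbers, read through their beta-galactosidase reporter with a colour substrate. Compounds at 10 µM. Higher reads as fewer parasites (inferred from which compounds were picked for retests). Size under these conditions: about 67,000 compounds, about 260 of them at 50% or above in at least one test.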

| compound | T. brucei | Leishmania in macrophages | Toxoplasma |
|---|---|---|---|
| `Cc1ccc(CN2CCC3(CC(=O)N(c4ccc5c(c4)OCO5)C3)C2)o1` (centres undefined) | 41.32 | 15.88 | 1.962 |
| `[H][C@@]12CCN(CC3CCOCC3)C[C@@]1([H])[C@H](C(=O)N1CCCC1)CCO2` | -28.2 | 38.55 | 6.788 |
| `CN(Cc1cnn(C)c1)C(=O)NC1CCC(O)CC1` (centres undefined) | 24.32 | 0.4759 | 9.072 |
| `[H][C@]12CCN(C(=O)c3ccncc3F)[C@@]1([H])CC[C@H](COC)O2` | -53.91 | -7.191 | -6.164 |
| `CN(C)CCn1c2c(ccc1=O)CC(NCc1cnn(C)c1)CC2.O=C(O)C(F)(F)F.O=C(O)C(F)(F)F` (centres undefined) | 6.402 | 33.98 | -33.18 |
| `CC1CN(C)c2ccccc2CN1C(=O)NCc1ccon1` (centres undefined) | -18.24 | 19.24 | -6.667 |
| `Cc1csc(CN(C)C2CCN(c3sccc3C#N)C2=O)n1` (centres undefined) | -60.01 | -1.484 | -3.184 |
| `CCC(CO)N(Cc1ccco1)C(=O)c1cccc(C)c1O` (centres undefined) | 6.985 | 10.11 | -9.395 |
| `Cc1nn(C)c(Cl)c1CNCc1cccnc1N1CCOCC1.Cl` | 16.35 | 2.073 | 2.665 |
| `COc1ccc(C2CN(c3ncccn3)CCN2C(C)=O)cc1` (centres undefined) | -2.59 | -3.284 | -6.227 |
| `Cc1cc2ccccc2n1CC(=O)Nc1ccnn1CC1CCOC1` (centres undefined) | -17.51 | 2.797 | 16.7 |
| `CC(C)c1ncc(CN2C[C@@H](CN3CCCN(C)CC3)[C@@H](CO)C2)cn1` | 0.29 | -4.865 | -3.868 |
| `Cc1[nH]nc(CCC(=O)NCC2CCCN(C3CCCC3)C2)c1C` (centres undefined) | -7.898 | -2.137 | -0.04305 |
| `CC(=O)N1CCc2[nH]cnc2C12CCN(CC1CCOC1)CC2` (centres undefined) | -15.28 | 12.66 | 13.63 |
| `CN(Cc1nc(C(F)(F)F)cs1)C(=O)CCc1ccccn1` | -41.2 | 9.368 | 19.96 |
| `Cc1ccc(NCCNC(=O)C2Cc3cc(C)c(C)cc3O2)nn1` (centres undefined) | -27.67 | -4.7 | -2.071 |
| `Cc1cn2nc(N3CCCCC3Cn3cccn3)sc2n1` (centres undefined) | - | -21.05 | 11.79 |
| `Cc1cc(NC(=O)CNCc2csc(-c3ncccn3)n2)ccc1Cl` | 13.74 | 11.47 | 16.89 |
| `c1cn2c(n1)CO[C@@H](CNCc1ccc3c(c1)OCO3)C2` | -3.021 | 7.857 | -5.7 |
| `[H][C@]12CCN(S(C)(=O)=O)[C@@]1([H])CCC(COCC(=O)N1CCCC1)O2` (some centres undefined) | -13.33 | 23.34 | -2.219 |
| `O=C(NCCC1=CCCCC1)C1CCCN(c2ccc3nncn3n2)C1` (centres undefined) | 5.109 | -6.414 | -3.615 |
| `CCC(C)NC(=O)CN1CCOCC1` (centres undefined) | -26.71 | 10.74 | -10.28 |
| `OC(CNc1nc(C2CCCC2)nc2c1CCNCC2)C(F)(F)F` (centres undefined) | 99.48 | 100.7 | 20.69 |
| `CC(CC#N)n1ccc(C(F)(F)F)n1` (centres undefined) | 2.843 | 32.19 | 5.6 |
| `CCN(CC)C(=O)CN(C)CCn1nc2ccccn2c1=O` | -38.8 | 11.06 | -17 |
| `CCc1nc(CNCC2CCCN2c2cc(NC)ncn2)cs1` (centres undefined) | -42.65 | 32.37 | -9.549 |
| `O=C(Nc1ccc(I)cc1C(=O)NCCN1CCOCC1)c1ccco1` | 9.731 | 36 | -12.19 |
| `N#CC1CCN(C(=O)NCCc2ccc(Cl)s2)CC1` | -5.504 | 22.97 | -19.58 |
| `CC(=O)NC1CCCN(C(=O)CNc2cc(Cl)cc(Cl)c2)C1` (centres undefined) | -118.6 | 9.791 | -8.945 |
| `[H][C@@]12CN(C3CCOCC3)C[C@]1([H])OCC(=O)N2Cc1ccc(F)cc1` | -49.08 | -11.51 | -12.51 |
| `CC(=O)N1CCC(c2nccnc2-c2ccc(C(=O)O)cc2)CC1` | -12.84 | 4.783 | 23.2 |
| `COc1ccc(CCC(=O)N(C)CCN2CCOCC2)cc1OC` | -24.41 | -44.26 | -0.6734 |
| `O=C(NCc1ncc(-c2ccccc2)o1)NC1CCC(O)CC1` (centres undefined) | -23.47 | -12.55 | -12.73 |
| `O=C(c1cccnc1O)N1CCC2(CCCO2)CC1` | -72.01 | 3.222 | -6.613 |
| `COc1ccc(C[C@H]2CN(C(=O)c3ncccn3)CC[C@@H]2OC)cc1` | 3.592 | 12.03 | 0.8506 |
| `CC(C)N[C@@H]1CC[C@@H]1NC(=O)c1ccccc1OC(F)(F)C(F)F` | -36.23 | 10.72 | 0.2378 |
| `CS(=O)(=O)NCc1cccc(COC2CCCCC2)c1` | -38 | -43.13 | 23.34 |
| `CC(C)c1noc(-c2ccc(NCc3noc(C(C)C)n3)nc2)n1` | -34.53 | 25.07 | 4.291 |
| `N#Cc1cccc(N2CC3(CCN(C(=O)c4cccnc4)C3)CC2=O)c1.O=C(O)C(F)(F)F` (centres undefined) | 4.628 | -3.134 | -11.52 |
| `CNC(=O)c1nc2c(s1)CCN(C(=O)c1cccnc1)CC2.O=C(O)C(F)(F)F` | -38.16 | -20.04 | -12.39 |
| `CC(O)CN(CC(=O)NC1CCCCC1)c1ccccc1` (centres undefined) | -2.393 | -8.033 | 0.9265 |
| `Cc1ccc(-c2nnc(C(C)N3CCc4cncnc4C3)o2)cc1` (centres undefined) | -21.05 | 25.93 | 6.793 |
| `Clc1ccc(COCC2CCN(Cc3ccccn3)CC2)cc1.O=C(O)C(=O)O` | 10.77 | 27.18 | -10.41 |
| `Cc1nc(CCCNC(=O)c2cc(F)ccc2O)n[nH]1` | -28.29 | 7.02 | -14.51 |
| `O=C(O)C(F)(F)F.O=C(O)C(F)(F)F.O=C(O)C(F)(F)F.[H][C@@]12CN(Cc3ccncc3)C[C@@]1([H])N(Cc1ccncc1)C(=O)CO2` | 31.7 | 18.73 | 2.081 |
| `O=C(c1ccco1)N1CCN(Cc2nc(C3CC3)no2)CC1` | -31.88 | -15.74 | 2.136 |
| `O=C1CCC2(CCN(Cc3ccoc3)CC2)N1OCc1ccccc1F` | 2.632 | 2.508 | 2.085 |
| `Cc1nc(COC[C@H]2CCC[C@]23CN(CC2CC2)CCO3)cs1` | 11.7 | -2.185 | -7.941 |
| `COc1ccc(Cn2cc(C(=O)N(C)Cc3ccn[nH]3)nn2)cc1` | -3.058 | -15.02 | -4.353 |
| `NC(=O)CN1CCC(C(=O)NCc2ccc3nonc3c2)CC1` | -50.21 | 13.68 | 2.271 |
| `Cc1nn(CC(C)C)c(C)c1CC(=O)N1CCCC(CNS(C)(=O)=O)C1` (centres undefined) | -8 | 35.86 | -10.78 |
| `Cc1nc(C)n(CC2CCCN2CC(=O)Nc2cc(C)on2)n1` (centres undefined) | 11.68 | 13.76 | -8.417 |
| `CC(C)S(=O)(=O)NCC1CCCN(C(=O)c2ccc(Cl)cc2)C1` (centres undefined) | -27.98 | 1.185 | -23.87 |
| `Cc1cnn(CCNCc2csc(-c3ccc4c(c3)OCO4)n2)c1` | -47.67 | 16.11 | -8.751 |

For reference, 7 entries once more:

{"compound": "Cc1cnn(CCNCc2csc(-c3ccc4c(c3)OCO4)n2)c1", "T. brucei": -47.67, "Leishmania in macrophages": 16.11, "Toxoplasma": -8.751}
{"compound": "COc1ccc(C2CN(c3ncccn3)CCN2C(C)=O)cc1", "stereo": "centres undefined", "T. brucei": -2.59, "Leishmania in macrophages": -3.284, "Toxoplasma": -6.227}
{"compound": "[H][C@]12CCN(S(C)(=O)=O)[C@@]1([H])CCC(COCC(=O)N1CCCC1)O2", "stereo": "some centres undefined", "T. brucei": -13.33, "Leishmania in macrophages": 23.34, "Toxoplasma": -2.219}
{"compound": "Cc1nn(CC(C)C)c(C)c1CC(=O)N1CCCC(CNS(C)(=O)=O)C1", "stereo": "centres undefined", "T. brucei": -8, "Leishmania in macrophages": 35.86, "Toxoplasma": -10.78}
{"compound": "CCc1nc(CNCC2CCCN2c2cc(NC)ncn2)cs1", "stereo": "centres undefined", "T. brucei": -42.65, "Leishmania in macrophages": 32.37, "Toxoplasma": -9.549}
{"compound": "Clc1ccc(COCC2CCN(Cc3ccccn3)CC2)cc1.O=C(O)C(=O)O", "T. brucei": 10.77, "Leishmania in macrophages": 27.18, "Toxoplasma": -10.41}
{"compound": "Cc1cc(NC(=O)CNCc2csc(-c3ncccn3)n2)ccc1Cl", "T. brucei": 13.74, "Leishmania in macrophages": 11.47, "Toxoplasma": 16.89}